Reference: PubChem BioAssay AID1508588 (Peter MacCallum Cancer Centre, 2020)

Test: 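Which gene losses make BRAF-mutant melanoma cells more responsive to vemurafenib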 (primary screen)
Cells: human WM266.4 melanoma cells (BRAF V600 mutant)
Reagents: siRNA pool against human genes, 40 nM
Timing: 96 h from transfection to read-out
Challenge: vemurafenib 300 nM (about IC25), added 48 h after transfection, for 48 h; comparison arm got DMSO vehicle only
Detection: 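Cell gain (DAPI nuclei at end minus before drug, mean of two replicates) and medium lactate by absorbance per cell, both as ratio to non-targeting siRNA, also grouped into fold-change classes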
Scale: cell gain with vemurafenib: higher = more cell gain than with non-targeting siRNA; lactate per cell with vemurafenib: higher = more lactate made per cell
Rule for the call: 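Enhancement is called by pairing each knock-down's vehicle-arm and drug-arm fold-change classes for viability or glycolysis; which class combinations qualify is not given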
Meaning of the calls: active = enhances vemurafenib effect; inactive = no enhancement seen
The deposit covers about 18,000 reagents; this is an unselected part. Over the whole deposit, 790 (4.4%) were called active. 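Calls rest on a combination of fold-change classes in drug and vehicle arms, not all shown here.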 A number with no mark means an inactive call.

The opening 2 entries, ahead of the listing:
target gene	PubChem SID	cell gain with vemurafenib	lactate per cell with vemurafenib
ISX (GeneID 91464)	SID152147984	0.6	0.7
WASF2 (GeneID 10163)	SID134316433	0.23	1.04

The listing, from the start:
target gene	PubChem SID	cell gain with vemurafenib	lactate per cell with vemurafenib
ISX (GeneID 91464)	SID152147984	0.6	0.7
WASF2 (GeneID 10163)	SID134316433	0.23	1.04
OPRD1 (GeneID 4985)	SID152149277	0.3	1.3
KRTAP21-1 (GeneID 337977)	SID134322508	0.43	0.57
MTHFSD (GeneID 64779)	SID152154159	0.15	2.49
PROKR1 (GeneID 10887)	SID134311033	0.25	0.62
GSTA4 (GeneID 2941)	SID134315638	0.83	0.9
S100P (GeneID 6286)	SID134310372	0.15	0.2
KRT40 (GeneID 125115)	SID135623565	0.51	0.52
HRK (GeneID 8739)	SID134313102	0.45	1.55
LRMDA (GeneID 83938)	SID135622814	0.28 (active)	0.44
AIFM2 (GeneID 84883)	SID134310475	0.08	2.62
STIMATE (GeneID 375346)	SID134326857	0.67	1.4
TGM3 (GeneID 7053)	SID134314730	0.48	0.68
SLC7A14 (GeneID 57709)	SID152154133	1.08	1.19
ORMDL2 (GeneID 29095)	SID135623262	0.67	-0.33
LCP2 (GeneID 3937)	SID56479255	0.76	1.3
RHOT1 (GeneID 55288)	SID152150756	0.82	0.94
GNAI1 (GeneID 2770)	SID152153996	1.15	0.55
CHD1 (GeneID 1105)	SID152153699	0.81	0.64
ZFAND5 (GeneID 7763)	SID152156056	0.99	0.9
KRTAP1-3 (GeneID 81850)	SID135622536	0.72	1.02
IPCEF1 (GeneID 26034)	SID134326765	0.8	0.22
OR2A12 (GeneID 346525)	SID152153327	1.06	0.43
BLVRA (GeneID 644)	SID134310113	0.54	1.13
ZNF286A (GeneID 57335)	SID135624042	0.52	0.53
SLC30A6 (GeneID 55676)	SID134312573	0.88	0.75
SH2D3A (GeneID 10045)	SID152154745	0.82	1.23
SLC6A1 (GeneID 6529)	SID135621417	0.47	0.86
CBLC (GeneID 23624)	SID134312087	1.02	0.86
POLR1C (GeneID 9533)	SID135621667	0.9	1.04
PPP3CB (GeneID 5532)	SID134314428	0.52	0.88
PRF1 (GeneID 5551)	SID152152197	0.96	1.18
AUTS2 (GeneID 26053)	SID134318128	0.43	1.25
